Experimental data: paper PMC10273338
No constants are given. Whether binding was seen depends on the method and setting. Some binding calls cover weakened binding; strength is not graded here.

Amino acid sequences for entries named in this document (tags omitted).
UniProt O95817: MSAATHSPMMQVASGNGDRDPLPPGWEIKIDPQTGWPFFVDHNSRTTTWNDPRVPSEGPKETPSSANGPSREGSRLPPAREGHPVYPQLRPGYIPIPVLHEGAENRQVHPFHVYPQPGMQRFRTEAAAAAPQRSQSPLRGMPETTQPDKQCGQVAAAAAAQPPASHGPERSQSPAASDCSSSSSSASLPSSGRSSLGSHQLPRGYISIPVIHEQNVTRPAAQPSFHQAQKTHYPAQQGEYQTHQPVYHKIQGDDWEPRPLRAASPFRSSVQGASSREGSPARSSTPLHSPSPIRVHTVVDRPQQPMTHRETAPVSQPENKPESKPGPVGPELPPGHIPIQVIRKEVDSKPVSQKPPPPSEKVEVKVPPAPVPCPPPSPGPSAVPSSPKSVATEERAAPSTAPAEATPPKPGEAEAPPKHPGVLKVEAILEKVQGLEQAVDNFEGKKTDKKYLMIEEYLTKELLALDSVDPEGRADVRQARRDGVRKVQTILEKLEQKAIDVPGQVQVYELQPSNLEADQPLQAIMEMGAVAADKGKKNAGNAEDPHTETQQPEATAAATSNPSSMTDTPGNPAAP

T1: HspB8, Q9UJY1
T1 chain: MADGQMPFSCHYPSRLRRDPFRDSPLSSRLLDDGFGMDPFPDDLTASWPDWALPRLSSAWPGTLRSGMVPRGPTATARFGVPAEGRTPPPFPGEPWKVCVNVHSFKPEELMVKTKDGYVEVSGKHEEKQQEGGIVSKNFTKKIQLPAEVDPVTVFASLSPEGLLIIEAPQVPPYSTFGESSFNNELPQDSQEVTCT


Assays:
HspB8, Q9UJY1 = molecular target: T1, HspB8, Q9UJY1; experiment: solubility assay (centrifugation, SDS-PAGE) + AFM + thioflavin T fluorescence; protein alone, 20 uM (ThT: different concentrations) in PBS at 37°C with protease inhibitors, 0-72 h; self-assembly of HspB8 concentration-dependent with a lower limit of about 5 uM; both purified; details: remark: other sources report otherwise
[1] = molecular target: BAG3 (Bcl-2 associated athanogene protein 3) (human) (UniProt O95817); experiment: SEC; purified proteins mixed at BAG3:HspB8 1:2, 30 min at 37°C, then SEC; peaks probed by western blot with anti-BAG3 and anti-HspB8 and by FTIR; both purified

Row | Binder | binding (HspB8, Q9UJY1) | binding [1]
1 | HspB8, Q9UJY1 1-196 (natural protein) MADGQMPFSCHYPSRLRRDPFRDSPLSSRLLDDGFGMDPFPDDLTASWPDWALPRLSSAWPGTLRSGMVPRGPTATARFGVPAEGRTPPPFPGEPWKVCVNVHSFKPEELMVKTKDGYVEVSGKHEEKQQEGGIVSKNFTKKIQLPAEVDPVTVFASLSPEGLLIIEAPQVPPYSTFGESSFNNELPQDSQEVTCT | binds | 
2 | HspB8 (protein, UniProt Q9UJY1 1-196) MADGQMPFSCHYPSRLRRDPFRDSPLSSRLLDDGFGMDPFPDDLTASWPDWALPRLSSAWPGTLRSGMVPRGPTATARFGVPAEGRTPPPFPGEPWKVCVNVHSFKPEELMVKTKDGYVEVSGKHEEKQQEGGIVSKNFTKKIQLPAEVDPVTVFASLSPEGLLIIEAPQVPPYSTFGESSFNNELPQDSQEVTCT |  | binds
